Test results from patent US20030059769.
For some assays here: Results from cells or extracts need not show a direct contact. For some assays here: Construct, isoform or probe ends are uncertain for at least one entry.

Tests used:
[1] = target: T1, E-selectin (ES-Rg) (Homo sapiens) (UniProt P16581); assay: filter binding; conditions: 2'-F C and U, purified recombinant protein, protein details: human IgG1 Fc fusion
T1 sequence: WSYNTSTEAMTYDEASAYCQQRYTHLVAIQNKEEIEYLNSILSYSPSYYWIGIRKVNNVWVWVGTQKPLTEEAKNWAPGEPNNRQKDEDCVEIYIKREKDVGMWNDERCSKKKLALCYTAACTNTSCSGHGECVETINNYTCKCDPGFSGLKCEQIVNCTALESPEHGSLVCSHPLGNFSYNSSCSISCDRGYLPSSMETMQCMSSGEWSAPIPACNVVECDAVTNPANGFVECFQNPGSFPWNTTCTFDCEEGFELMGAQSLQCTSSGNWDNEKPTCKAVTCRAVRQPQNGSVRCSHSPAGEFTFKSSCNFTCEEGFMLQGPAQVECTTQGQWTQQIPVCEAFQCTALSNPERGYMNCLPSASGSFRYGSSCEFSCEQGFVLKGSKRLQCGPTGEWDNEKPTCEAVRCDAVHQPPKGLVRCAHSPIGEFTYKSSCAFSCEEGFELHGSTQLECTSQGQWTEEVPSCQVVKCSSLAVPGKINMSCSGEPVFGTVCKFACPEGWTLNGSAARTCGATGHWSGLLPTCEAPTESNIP

[2] = target: T2, L-selectin (LS-Rg) (Homo sapiens) (UniProt P14151); assay: filter binding; conditions: purified recombinant protein, protein details: human IgG2 Fc fusion
T2 sequence: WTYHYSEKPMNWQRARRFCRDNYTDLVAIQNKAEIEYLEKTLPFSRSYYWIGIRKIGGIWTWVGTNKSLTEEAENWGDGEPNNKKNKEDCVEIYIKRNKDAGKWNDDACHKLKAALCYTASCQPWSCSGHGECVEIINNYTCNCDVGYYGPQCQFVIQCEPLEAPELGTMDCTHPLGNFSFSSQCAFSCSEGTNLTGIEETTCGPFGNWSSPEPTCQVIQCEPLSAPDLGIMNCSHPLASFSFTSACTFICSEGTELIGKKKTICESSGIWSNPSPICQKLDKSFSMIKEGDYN

[3] = target: T3, P-selectin (PS-Rg) (Homo sapiens) (UniProt P16109); assay: filter binding; conditions: 2'-NH2 C and U; probably nM; 37 C; purified recombinant protein; protein details: human IgG Fc fusion
T3 sequence: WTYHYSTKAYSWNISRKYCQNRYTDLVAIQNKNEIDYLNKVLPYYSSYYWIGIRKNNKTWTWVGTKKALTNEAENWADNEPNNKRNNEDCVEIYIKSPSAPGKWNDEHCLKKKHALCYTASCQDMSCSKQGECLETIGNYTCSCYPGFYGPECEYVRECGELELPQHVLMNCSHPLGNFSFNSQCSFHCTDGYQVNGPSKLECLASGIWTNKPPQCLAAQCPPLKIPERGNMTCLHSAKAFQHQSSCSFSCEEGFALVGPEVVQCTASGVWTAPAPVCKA

[4] = target: P-selectin on activated platelets (Homo sapiens) (UniProt P16109); assay: flow cytometry; conditions: 2'-NH2 C and U; blocked by G1 antibody, unlabeled PA350, EDTA; protein on the cell surface; label: FITC; variant of PA350
[5] = target: T4, L-selectin on PBMC / lymphocytes (Homo sapiens) (UniProt P14151); assay: activity in cells; conditions: protein on the cell surface, single-stranded DNA, dose not given here
T4 sequence: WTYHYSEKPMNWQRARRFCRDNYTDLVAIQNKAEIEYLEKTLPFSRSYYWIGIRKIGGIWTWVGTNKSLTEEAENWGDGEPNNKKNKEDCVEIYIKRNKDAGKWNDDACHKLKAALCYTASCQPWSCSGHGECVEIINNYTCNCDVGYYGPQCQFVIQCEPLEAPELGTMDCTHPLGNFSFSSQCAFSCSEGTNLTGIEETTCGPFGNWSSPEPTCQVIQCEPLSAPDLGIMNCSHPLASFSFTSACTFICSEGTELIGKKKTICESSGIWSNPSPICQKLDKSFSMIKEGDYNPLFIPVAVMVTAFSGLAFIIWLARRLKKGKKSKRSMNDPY

CUCAACGAACCACGGGGAAAUCCACCAGUAACACGCGAG [PF398s1]
Kd ([1]; variant of PF398): > 3000 nM
Kd ([2]; 2'-F C and U, variant of PF398): > 3000 nM

CUCAACGAAUCAGUAAACAUAACACCAUGAAACAUAAAUAGCACGCGAG [PF373s1]
Kd ([1]; variant of PF373): > 3000 nM
Kd ([2]; 2'-F C and U, variant of PF373): > 3000 nM

CUCAACGAGCCAGGAACAUCGACGUCAGCAAACGCGAG [PF377M1]
Kd ([1]; 2'-OMe G7 G9 G14 G21 A8 A15 A18 A22 A27 A31, variant of PF377s1): > 3000 nM

CUCAACGAGCCAGGAACAUCGACGUCAGCAAACGCGAG [PF377M3]
Kd ([1]; 2'-OMe G 7,9,14,21,36 and A 8,15,18,22,27,31,37 as listed, variant of …): > 3000 nM

CUCAACGAGCCAGGAACAUCGACGUCAGCAAACGCGAG [PF377M5]
Kd ([1]; 2'-OMe G 7,9,14 and A 8,15,18,27,31, variant of PF377s1): > 3000 nM

CUCAACGAGCCAGGAACAUCGACGUCAGCAAACGCGAG [PF377s1B]
Kd ([1]; biotin, variant of PF377s1): > 3000 nM
Kd ([2]; 2'-F C and U, biotin, variant of PF377s1): > 3000 nM

CUCAACGAGCCAGGAACAUCGACGUCAGCAAACGCGAG [PF377s1]
Kd ([1]; variant of PF377): > 3000 nM
Kd ([2]; 2'-F C and U, variant of PF377): > 3000 nM

CUCAACGAGCCAGGACUACGAUCAGCAAACGCGAG [PF377L1]
Kd ([1]; variant of PF377s1): > 3000 nM
Kd ([2]; 2'-F C and U, variant of PF377s1): > 3000 nM

GAAUCCGGAACACGCGAGAAAACAAAUCAACGACCAAUCGAUUCG [PF422s1]
Kd ([1]; variant of PF422): > 3000 nM
Kd ([2]; 2'-F C and U, variant of PF422): > 3000 nM

GGGAGACAAGAAUAAACGCUCAACGAAUCAGUAAACAUAACACCAUGAAACAUAAAUAGCACGCGAGACGUCUUCGACAGGAGGCUCACAACAGGC [PF373]
Kd [1]: > 3000 nM
Kd ([2]; 2'-F C and U): > 3000 nM

GGGAGACAAGAAUAAACGCUCAACGAGCCAGGAACAUCGACGUCAGCAAACGCGAGCGCAACCAGUAACACCUUCGACAGGAGGCUCACAACAGGC [PF377]
Kd ([2]; 2'-F on all C and U, specificity control, label: 32P): > 3000 nM

GGGAGACAAGAAUAAACGCUCAAGAUCAGCGGAACUAAGAAAUGGAAGGCUAAGCACCGGGAUCGGGAGAAUUCGACAGGAGGCUCACAACAGGC [PA309]
Kd [3]: 0.000656 nM

GGGAGACAAGAAUAAACGCUCAAGCCCCAAACGCAAGUGAGCAUCCGCAACAGGGAAGAAGACAGACGAUUGAUUCGACAGGAGGCUCACAACAGGC [FITC-PA350]
binding result [4]: binds

GGGAGACAAGAAUAAACGCUCAAGCCCCAAACGCAAGUGAGCAUCCGCAACAGGGAAGAAGACAGACGAUUGAUUCGACAGGAGGCUCACAACAGGC [PA350]
Kd ([2]; 2'-NH2 C and U): > 3000 nM

TAGCCATTCACCATGGCCCCTTCCTACGTATGTTCTGCGGGTGGCTTA [LD174T1]
functional effect of the aptamer ([5]; trafficking inhibition similar to NX288, variant of LD174): active

TTAGCCAAGGTAACCAGTACAAGGTGCTAAACGTAATGGCTTCGGCTTACTT [NX288]
functional effect of the aptamer ([5]; 5' amino modifier C6 dT with 20 kDa PEG, 3'-3' terminal dT [1 = 5' amino modifier C6 dT with 20 kDa PEG (PEG left out), 52 = 3'-3' terminal dT], inhibits human lymphocyte trafficking to SCID mouse lymph nodes, letters built from the parent sequence and the stated change, variant of LD201T1): active
